# PubChem BioAssay AID686943 – Drosophila RNAi Screening Center | 2013
# Assay: 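Search across the genome for regulators of signalling from receptor tyrosine kinase to ERK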 (primary screen)
# System: Drosophila S2R+ haemocyte-like cells expressing YFP-tagged ERK (Rolled)
# Reagents: long dsRNA against Drosophila genes
# Challenge: insulin stimulation versus unstimulated cells; dose and duration not given
# Detection: 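Antibody staining for doubly phosphorylated ERK divided by ERK-YFP signal, as plate z-scores, in insulin-treated and untreated cells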
# Scale: replicate 1, z-score of dpERK with insulin and replicate 2, z-score of dpERK with insulin: higher = more active ERK per ERK-YFP after insulin; replicate 1, z-score of dpERK under basal conditions: higher = more basal active ERK per ERK-YFP; replicate 1, z-score of ERK-YFP with insulin: higher = more YFP-tagged ERK signal
# The screen tested about 23,000 reagents; shown is a random part of those with a known target gene and a result. 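Extra replicates exist only for a retested subset of genes; insulin dose and duration not given; both raised and lowered dpERK matter.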 Not stated in the record: the amount of reagent, the time to read-out.
target,DRSC id,"replicate 1, z-score of dpERK with insulin","replicate 2, z-score of dpERK with insulin","replicate 1, z-score of dpERK under basal conditions","replicate 1, z-score of ERK-YFP with insulin"
CG7011,DRSC09347,-0.46,0.25,1.07,1.29
CysRS (Cysteinyl-tRNA synthetase),DRSC05948,-0.49,0.17,-1.78,0.42
CG15673,DRSC04263,0.03,0.66,-0.12,0.42
CG4483,DRSC10426,-1.55,-0.38,0.44,1.21
Ced-12,DRSC02840,-0.26,-0.56,-0.7,-0.38
Taf13 (TBP-associated factor 13),DRSC02106,0.36,-0.68,-1.66,0.08
CG2818,DRSC00540,-0.09,0,8.73,1.43
CG10803,DRSC17763,0.01,0.06,0.75,-0.4
Sec20 (Secretory 20),DRSC12295,-1.17,0.13,-0.84,0.9
TFAM (mitochondrial transcription factor A),DRSC15552,0.56,0.21,-0.05,-0.37
CG9368,DRSC11067,1.96,1.33,-0.11,-0.24
Tango2 (Transport and Golgi organization 2),DRSC19394,0.17,0.37,0.48,-0.01
Tango2 (Transport and Golgi organization 2),DRSC21526,-0.14,0.89,-1.29,0.48
eIF3g2 (eukaryotic translation initiation factor 3 subunit g2),DRSC14275,-0.66,0.58,-0.15,-0.63
CG12123,DRSC17818,0.02,0.06,0.67,0.23
CG17380,DRSC15230,0.34,0.06,1.44,0.39
CG10051,DRSC05959,0.98,0.46,-0.11,0.37
SKIP (Shal K[+] channel interacting protein),DRSC14713,-0.49,-0.09,-0.68,0.97
SKIP (Shal K[+] channel interacting protein),DRSC14714,-0.23,-0.48,-0.38,-0.11
SKIP (Shal K[+] channel interacting protein),DRSC15864,1.24,0.34,-2.59,0.55
SKIP (Shal K[+] channel interacting protein),DRSC16195,0.04,-0.2,0.07,0.28
SKIP (Shal K[+] channel interacting protein),DRSC16196,0.3,-0.21,-0.34,-0.49
CG8578,DRSC20114,0.53,0.39,-0.42,-0.35

A portion taken from the entries so far, as a working copy:
target,DRSC id,"replicate 1, z-score of dpERK with insulin","replicate 2, z-score of dpERK with insulin","replicate 1, z-score of dpERK under basal conditions","replicate 1, z-score of ERK-YFP with insulin"
SKIP (Shal K[+] channel interacting protein),DRSC16196,0.3,-0.21,-0.34,-0.49
CG8578,DRSC20114,0.53,0.39,-0.42,-0.35
